Results are given in words; binding and its absence hold for the method and conditions named. In cells and extracts the contact can be indirect. Some results given as binding are weak or reduced against the parent protein; the word gives no strength.
Biological target: mouse recombinant IGF-1 (Insulin Growth Factor 1) (mouse) (UniProt P05017)
Experiment: co-immunoprecipitation and western blot; mouse recombinant proteins (FIG. 5 (I)) and retina lysates (FIG. 5 (II))

Amino acid sequences for entries named in this document (tags omitted). Residues count along the entry.
UniProt P05017, residues 49-118: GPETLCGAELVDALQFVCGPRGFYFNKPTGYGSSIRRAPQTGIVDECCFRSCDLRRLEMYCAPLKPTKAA

binding: binds
B1: mouse recombinant IGFBPL-1 (insulin-like growth factor binding protein-like 1) (protein, UniProt Q80W15 18-270, looked up)
chain: LGLRDAGRRHPECSPCQQDRCPAPSPCPAPWISARDECGCCARCLGAEGASCGGPVGSRCGPGLVCASRASGTAPEGTGLCVCAQRGAVCGSDGRSYSSICALRLRARHAPRAHHGHLHKARDGPCEFAPVVLMPPRDIHNVTGTQVFLSCEVKAVPTPVITWKKVKHSPEGTEGLEELPGDHVNIAVQVRGGPSDHETTSWILINPLRKEDEGVYHCHAANAIGEAQSHGTVTVLDLNRYKSLYSSVPGDLL

From patent publication US12295985
